Assay results reported in article PMC3914767.
Results are given in words; binding and its absence hold for the method and conditions named. Binding can be weak; no strength is given.

Amino acid sequences for entries named in this document (tags omitted). A change or cut given only in a name is not applied to a line headed by its entry.
UniProt Q9NQU5: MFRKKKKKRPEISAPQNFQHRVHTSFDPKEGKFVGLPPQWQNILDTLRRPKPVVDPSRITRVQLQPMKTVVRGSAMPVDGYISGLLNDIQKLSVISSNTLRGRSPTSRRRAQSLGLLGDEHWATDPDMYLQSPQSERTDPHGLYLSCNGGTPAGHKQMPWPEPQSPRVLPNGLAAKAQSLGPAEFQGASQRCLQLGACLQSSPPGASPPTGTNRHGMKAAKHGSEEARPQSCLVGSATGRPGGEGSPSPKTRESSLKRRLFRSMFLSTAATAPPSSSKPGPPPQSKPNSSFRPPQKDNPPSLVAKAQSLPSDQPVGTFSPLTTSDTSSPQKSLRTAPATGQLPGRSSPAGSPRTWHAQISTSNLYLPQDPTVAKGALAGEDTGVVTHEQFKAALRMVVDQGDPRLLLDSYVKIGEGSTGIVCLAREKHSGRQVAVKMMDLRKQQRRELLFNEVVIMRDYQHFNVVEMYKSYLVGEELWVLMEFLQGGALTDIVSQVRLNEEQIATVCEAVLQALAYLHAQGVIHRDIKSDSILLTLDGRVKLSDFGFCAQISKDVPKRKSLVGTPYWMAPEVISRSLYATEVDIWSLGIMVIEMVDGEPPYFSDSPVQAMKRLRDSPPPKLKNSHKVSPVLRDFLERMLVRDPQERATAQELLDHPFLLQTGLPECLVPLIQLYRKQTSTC
UniProt P29311: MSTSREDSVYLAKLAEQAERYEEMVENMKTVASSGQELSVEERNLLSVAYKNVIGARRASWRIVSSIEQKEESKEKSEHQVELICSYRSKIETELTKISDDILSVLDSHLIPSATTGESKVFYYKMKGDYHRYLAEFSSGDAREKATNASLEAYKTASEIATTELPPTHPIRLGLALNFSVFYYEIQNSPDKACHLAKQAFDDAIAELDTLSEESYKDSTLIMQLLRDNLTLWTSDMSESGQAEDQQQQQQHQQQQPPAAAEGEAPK

Molecular target: PAK6-GFP mutated at Thr99 (human) (UniProt Q9NQU5)
Assay: far-Western, overlay or dot blot; PAK-GFP proteins isolated with GFP-Trap from lysates of transfected HEK293 cells (in 10% serum, or serum-starved 10 h and stimulated with PMA 100 nM 30 min), blotted and probed with digoxygenin-labelled 14-3-3 (mix of yeast BMH1 and BMH2) in place of a primary antibody; both purified

binding: binds
Substance: digoxygenin-labelled 14-3-3 (a mix of the Saccharomyces cerevisiae BMH1 and BMH2 14-3-3 isoforms) (from UniProt P29311 1-267; P34730 1-273)
